Results: the supplement of paper PMC8166895
Values joined by “and” are separate entries in the source; they are usually repeats but may differ in a detail not shown here. Identical values can stand only once. Counter-ions that a name gives are not always drawn. Some of the results follow. Most values lie at the level of the controls, where differences are scatter.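 A single-replicate pilot screen of approved drugs and clinical or known-target compounds measured melting temperature via differential scanning fluorimetry. Top stabilizing hits raised the melting point by 2 °C or more; negative shifts indicate destabilization.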

Tested on: SARS-CoV-2 main protease (Mpro, nsp5)
Assay: thermal shift ΔTm of Mpro relative to plate average Tm; higher = stronger thermal stabilization of Mpro (binding)
Conditions: 10 µM; protein concentration 1 µM

Structure (SMILES) | thermal shift ΔTm of Mpro
Cc1cc(-c2nc(-c3ccc(OC(F)(F)F)cc3)no2)nn1Cc1ccnc(N2CCN(C3CC3)CC2)c1 | 0.224 °C
Cc1ccc2c(Nc3ccc(Cl)cc3)nccc2c1Nc1ncccc1-c1ncnc2nc[nH]c12 [B-Raf inhibitor 1] | 0.338 °C
COC(=O)[C@H]1[C@H]2C[C@@H]3c4[nH]c5cc(OC)ccc5c4CCN3C[C@H]2C[C@@H](OC(=O)c2cc(OC)c(OC)c(OC)c2)[C@@H]1OC [Reserpine] | -0.179 °C
COc1cc2c(cc1OC)-c1cc3ccc(OC)c(OC)c3c[n+]1CC2 [Palmatine chloride] | -0.034 °C
C=CCc1ccc(O)c(-c2ccc(O)c(CC=C)c2)c1 [Honokiol] | 0.268 °C
O=C(O[C@@H]1Cc2c(O)cc(O)cc2O[C@@H]1c1cc(O)c(O)c(O)c1)c1cc(O)c(O)c(O)c1 [(-)-Epigallocatechin Gallate] | 0.609 °C
N#Cc1ccc2ncnc(NC3CCC(N4CCOCC4)CC3)c2c1 (stereo not given) | 0.0414 °C
CCN(CC)CCN(Cc1ccc(-c2ccc(C(F)(F)F)cc2)cc1)C(=O)Cn1c(SCc2ccc(F)cc2)nc(=O)c2c1CCC2 | 0.121 °C
CC[C@H]1CN2CCc3cc(OC)c(OC)cc3[C@@H]2C[C@@H]1C[C@H]1NCCc2cc(OC)c(OC)cc21 [(+)-Emetine dihydrochloride hydrate] | -0.109 °C
N#C[C@@H]1CCCN1C(=O)CNC12CC3CC(CC(O)(C3)C1)C2 [Vildagliptin (LAF-237)] | 0.0692 °C
Cc1nc(Nc2n[nH]c3c2CN(C(=O)N[C@H](CN(C)C)c2ccccc2)C3(C)C)c2sccc2n1 | 0.0251 °C and 0.103 °C
CCn1cc(-c2ccnc3[nH]c(-c4cccc(CN(C)C)c4)cc23)c(-c2ccc(NC(=O)N(C)C)cc2)n1 | -0.245 °C
CCOc1ccn(-c2ccc(F)cc2)c(=O)c1C(=O)Nc1ccc(Oc2ccnc(N)c2Cl)c(F)c1 | -0.124 °C
CCC(=O)NS(=O)(=O)c1ccc(-c2c(-c3ccccc3)noc2C)cc1 [Parecoxib] | 0.0279 °C
CCN(CC)CCNC(=O)c1ccc(NC(C)=O)cc1 [Acecainide] | 0.234 °C
CCN(CC)CCNC(=O)c1ccc(NC(C)=O)cc1 [Acecainide hydrochloride] | -0.00244 °C
C[C@@H]1CN(Cc2ccc(F)cc2)CCN1C(=O)COc1ccc(Cl)cc1NC(N)=O | 0.258 °C
CNC[C@H](O)c1cccc(O)c1 [Phenylephrine HCl] | -0.0477 °C
OC[C@H]1O[C@@H](OCCc2ccc(O)cc2)[C@H](O)[C@@H](O)[C@@H]1O [Salidroside] | -0.0122 °C
COc1cc(CNC(=O)CCCC/C=C\C(C)C)ccc1O [Zucapsaicin] | 0.262 °C
COC(=O)c1ccc2c(c1)[nH]c1ncnc(NCCCN3CCCCC3)c12 | -0.247 °C
C[C@H]1[C@H](NC(=O)/C(=N\OC(C)(C)C(=O)O)c2csc(N)n2)C(=O)N1S(=O)(=O)O [Aztreonam] | 0.56 °C
CC(C)S[C@@H]1O[C@H](CO)[C@H](O)[C@H](O)[C@H]1O | -0.0989 °C
Cc1cccc([C@H](C)c2c[nH]cn2)c1C [Dexmedetomidine] | 0.102 °C
Cc1cccc([C@H](C)c2c[nH]cn2)c1C [Dexmedetomidine HCl (Precedex)] | 0.118 °C

Structure (SMILES) | thermal shift ΔTm of Mpro
CCc1c2c(nc3ccc(OC(=O)N4CCC(N5CCCCC5)CC4)cc13)-c1cc3c(c(=O)n1C2)COC(=O)[C@]3(O)CC [Irinotecan] | 0.168 °C
CCc1c2c(nc3ccc(OC(=O)N4CCC(N5CCCCC5)CC4)cc13)-c1cc3c(c(=O)n1C2)COC(=O)[C@]3(O)CC [Irinotecan HCl Trihydrate] | -0.109 °C
COc1cc2c(cc1NS(=O)(=O)c1ccc(Br)cc1C)n(C)c(=O)n2C | -0.313 °C
CC(C)(O/N=C(\C(=O)N[C@@H]1C(=O)N2C(C(=O)[O-])=C(C[n+]3ccccc3)CS[C@H]12)c1csc(N)n1)C(=O)O [Ceftazidime] | -0.114 °C
Cc1c(Cl)cccc1Nc1ncccc1C(=O)O [Clonixin] | 0.0343 °C
CCC[C@H](NC(=O)/C(C#N)=C/c1cccc(Br)n1)c1ccccc1 [Degrasyn (WP1130)] | -0.545 °C
CCOC(=O)NCCCC(=O)NCCc1ccccc1 | -0.116 °C
COc1ccc(Cl)cc1N(CC(=O)Nc1ccc2c(c1)OCO2)S(=O)(=O)c1ccccc1 | -0.075 °C
Cc1cc(NC(=O)c2cccc(NC(=O)/C=C/CN(C)C)c2)ccc1Nc1nccc(-c2cccnc2)n1 | -0.106 °C
CCOc1cc2ncc(C#N)c(Nc3ccc(OCc4ccccn4)c(Cl)c3)c2cc1NC(=O)/C=C/CN(C)C [Neratinib] | 0.0546 °C
Cc1cccc(Nc2cc(Cl)nc(SCC(=O)O)n2)c1C | -0.141 °C
O=C(N/N=C/c1ccc([N+](=O)[O-])o1)c1ccc(O)cc1 [Nifuroxazide] | 0.0358 °C
Cc1cn([C@@H]2C[C@@H](O)[C@H](CO)O2)c(=O)[nH]c1=O [Telbivudine] | 0.0766 °C
CC(=O)Nc1ccc(S(=O)(=O)Nc2ccc([N+](=O)[O-])cc2)cc1 [Sulfanitran] | -0.00821 °C
CCc1cc(C(N)=S)ccn1 [Ethionamide] | 0.057 °C
OCC(Br)(Br)Br [Basibrol] | 0.254 °C
CC(=O)Nc1c(I)c(NC(C)=O)c(I)c(C(=O)O)c1I [Diatrizoate sodium] | -0.0894 °C
O=C(NC(NC(=S)Nc1ccc(F)c([N+](=O)[O-])c1)C(Cl)(Cl)Cl)C(c1ccccc1)c1ccccc1 (stereo not given) | 0.815 °C
OCc1ccc(O[C@@H]2O[C@H](CO)[C@@H](O)[C@H](O)[C@H]2O)cc1 [Gastrodin] | -0.0133 °C
Cn1cc(C2=C(c3ccc(Cl)cc3Cl)C(=O)NC2=O)c2ccccc21 | 0.17 °C
CCNC(=O)c1noc(-c2cc(Cl)c(O)cc2O)c1-c1ccc(OC)cc1 | 0.0849 °C
CS(=O)(=O)Nc1cc(-c2ccc3ncnc(Nc4ccc(F)c(Cl)c4)c3c2)cnc1Cl | 0.063 °C
CCn1cc(C(=O)O)c(=O)c2cc(F)c(N3CCN(C)CC3)cc21 [Pefloxacin Mesylate] | 0.0217 °C
CCn1cc(C(=O)O)c(=O)c2cc(F)c(N3CCN(C)CC3)cc21 [Pefloxacin Mesylate Dihydrate] | 0.0653 °C
N#CN=C(NCCCCCCOc1ccc(Cl)cc1)Nc1ccncc1 | -0.0785 °C
